# Data reported in PubChem BioAssay AID504834 (National Center for Advancing Translational Sciences (NCATS), 2011).
# Out of some 320,000 compounds screened, about 22,000 (6.9%) were called active. Inconclusive results, whose numbers are uncertain, are shown with a selection of clear calls. The call rests on the fitted dose curve; in most records, active means well fitted inhibition curve with a large enough effect; inconclusive means small, poorly fitted or top-dose-only effect, or another doubt; inactive means no such curve, though single readings can be large or run the other way. Where the call is inconclusive, the potency comes from a doubtful curve fit.
# Assay: Primary qHTS for delayed death inhibitors of the malarial parasite plastid, 96 hour incubation
# Conditions: P. falciparum luciferase reporter growth; series mostly up to 28.7 µM
# In short: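 Parasite growth measured via integrated firefly luciferase reporter in P. falciparum. Infected erythrocytes at 2% hematocrit, 0.05% parasitemia final were treated 96 hours at 37 C under 5% CO2, and luminescence was read.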
# Potency means the concentration at half of the fitted maximal effect.
row,Structure (SMILES),Potency
1,Cc1nc(SCC(=O)Nc2c(C)n(C)n(-c3ccccc3)c2=O)[nH]c(=O)c1Cc1ccccc1,"inconclusive: 16.5 µM [inhibitor, single point]"
2,CC(C)(C)NC(=O)CN(Cc1cccs1)C(=O)c1csnn1,"inconclusive: 2.62 µM [inhibitor, full curve, poor fit]"
3,Cc1cc2cc(CN(CC3CCCO3)C(=S)Nc3ccccc3)c(=O)[nH]c2cc1C (stereo not drawn),inactive
4,O=c1c(C(c2ccc(Cl)cc2)c2c(O)nc3n(c2=O)CCCS3)c(O)nc2n1CCCS2,"inconclusive: 0.131 µM [inhibitor, partial curve, poor fit]"
5,COc1ccc(OCC(=O)NNC(=S)NC(=O)C2CC2)cc1,"inconclusive: 18.5 µM [inhibitor, single point]"
6,Cc1ccc(S(=O)(=O)NCC(=O)OCC(=O)c2c(N)n(C)c(=O)n(C)c2=O)cc1,inactive
7,COc1cccc(NC(=O)CNC(=O)[C@@H]2Cc3ccccc3CN2C(=O)OC(C)(C)C)c1,inactive
8,COc1ccc(NC(=O)CN(c2ccc(OC)c(Cl)c2)S(=O)(=O)c2ccccc2)cc1,"inconclusive: 18.5 µM [inhibitor, single point]"
9,COc1ccc(Cl)cc1NC(=O)CN(C)C(C)C(=O)NC(=O)NC1CCCCC1 (stereo not drawn),"inconclusive: 11.7 µM [inhibitor, single point]"
10,O=C(NCc1cccnc1)Nc1ccc([N+](=O)[O-])cc1,"inconclusive: 18.5 µM [inhibitor, single point]"
11,O=C(Cc1ccc(Cl)cc1)NCCCNC(=O)c1cccnc1,inactive
12,CCCCC[C@H](O)/C=C/[C@H]1CCC(=O)[C@@H]1CCCCCCC(=O)N1CCCCC1CO (stereo partly drawn),"inconclusive: 4.15 µM [inhibitor, partial curve]"
13,CC(C)COc1ccc(C(=O)N2C(=O)c3ccc(N)cc3C2=O)cc1,inactive
14,O=C(NC(=S)Nc1ccc2c(c1)OCCO2)c1ccccc1,inactive
15,CC1(C)Cc2c(C#N)c(OCC(=O)c3ccc(Cl)cc3)nc(-c3ccoc3)c2CO1,"inconclusive: 14.7 µM [inhibitor, single point]"
16,O=C(O)CCC(=O)NNC(=O)c1ccc(-c2ccccc2)cc1,"inconclusive: 20.8 µM [inhibitor, partial curve, poor fit]"
17,O=C(COc1ccc(Cl)cc1Cl)Nc1ccc(-c2ccc(N3CCOCC3)nn2)cc1,"inconclusive: 2.08 µM [inhibitor, partial curve, poor fit]"
18,CCCN(CC(=O)Nc1ccccc1OC)C(=O)CSc1ccc(Br)cc1C,inactive
19,CC(/C=C/c1ccco1)=N\NC(=O)c1cc(C)[nH]n1,inactive
20,COc1ccc(C(=O)Nc2cc3c(cc2N2CCOCC2)n(C)c(=O)n3C)cc1OC,"inconclusive: 14.7 µM [inhibitor, partial curve, poor fit]"
21,COc1ccccc1N1CCN(C(=O)Nc2ccc(F)c(Cl)c2)CC1,"inconclusive: 1.31 µM [inhibitor, partial curve, poor fit]"
22,COc1ccc(C)cc1NC(=O)CSc1nnc(COc2ccc(Cl)cc2)n1Cc1ccco1,"inconclusive: 0.415 µM [inhibitor, full curve, poor fit]"
23,N/C(=N\OC(=O)c1ccc(F)cc1)c1ccc(Br)cc1,"inconclusive: 11.7 µM [inhibitor, partial curve]"

# Ordered by formula weight (falling): some entries from above.
row,Structure (SMILES),Potency
4,O=c1c(C(c2ccc(Cl)cc2)c2c(O)nc3n(c2=O)CCCS3)c(O)nc2n1CCCS2,"inconclusive: 0.131 µM [inhibitor, partial curve, poor fit]"
3,Cc1cc2cc(CN(CC3CCCO3)C(=S)Nc3ccccc3)c(=O)[nH]c2cc1C (stereo not drawn),inactive
11,O=C(Cc1ccc(Cl)cc1)NCCCNC(=O)c1cccnc1,inactive

# Carrying on.

row,Structure (SMILES),Potency
1,CCOc1ccccc1CNc1ccc(N2CCOCC2)c(C(=O)O)c1,"inconclusive: 0.828 µM [inhibitor, full curve, poor fit]"
2,O=C(c1cnc2ccccc2n1)N1CCN(c2ccc(C(F)(F)F)cn2)CC1,inactive
3,CCn1cc(C(c2ccccc2)C(C(C)=O)[N+](=O)[O-])c2ccccc21 (stereo not drawn),"inconclusive: 13.1 µM [inhibitor, single point]"
4,COc1ccccc1C(=O)N/C(=C\c1cn(C)c2ccccc12)C(=O)N1CCOCC1,"inconclusive: 18.5 µM [inhibitor, single point]"
5,Cc1ccc(/C=C(\C#N)C(=O)NC(C)c2ccccc2)o1 (stereo not drawn),"inconclusive: 18.5 µM [inhibitor, single point]"
6,C/C=C/c1ccc(OCc2cc(=O)n3cc(C)ccc3n2)c(OC)c1,"inconclusive: 9.28 µM [inhibitor, single point]"
7,O=C(C1CCN(S(=O)(=O)c2ccccc2F)CC1)N1CCc2ccccc2C1,"inconclusive: 10.4 µM [inhibitor, single point]"
8,COCCOC(=O)C1=C(C)NC(=O)NC1c1cc2c(cc1Br)OCO2 (stereo not drawn),"inconclusive: 16.5 µM [inhibitor, single point]"
9,CC1CCN(C(=O)c2ccccc2NC(=O)Cc2ccccc2)CC1,inactive
10,COC(=O)c1cc(=O)n(CCc2ccccc2)c(=Nc2ccc(F)cc2)s1,active: 4.15 µM
11,c1ccc(C(c2ccccc2)N2CCN(C(c3ccccn3)c3nnnn3C3CCCC3)CC2)cc1 (stereo not drawn),active: 4.65 µM
12,O=C(Cc1cccs1)N(CC1CCCO1)C1(C(=O)NC2CCCCC2)CCCCC1 (stereo not drawn),inactive
13,Cc1c(Nc2ccc3nonc3c2[N+](=O)[O-])c(=O)n(-c2ccccc2)n1C,active: 0.657 µM
14,Cc1cc(C(=O)Nc2cccc(C)c2C)n(-c2ccccc2)n1,inactive
15,Clc1ccc2nc(COc3ccccc3)[nH]c2c1,inactive
16,COc1ccc(N2CCN(C(=O)c3cc(=O)c4cc(C)ccc4o3)CC2)cc1,"inconclusive: 0.294 µM [inhibitor, full curve]"
17,Cc1ccc(SCc2cn3ccccc3n2)cc1,inactive
18,Cc1ccc(-c2nc(CCNC(=O)c3ccco3)cs2)cc1,"inconclusive: 18.5 µM [inhibitor, single point]"
19,COc1cc(NC(=O)C2CCCN(S(=O)(=O)c3ccc4c(c3)CCCN4C(C)=O)C2)cc(OC)c1 (stereo not drawn),inactive
20,COc1ccc(S(=O)Cc2ccc(C(=O)N3CCN(c4cccc(C)c4C)CC3)o2)cc1 (stereo not drawn),"inconclusive: 5.86 µM [inhibitor, partial curve]"
21,CCN1/C(=C2\C(=O)N(C)C(=S)N2c2ccccc2)C=Cc2ccccc21,"inconclusive: 18.5 µM [inhibitor, single point]"
22,Cc1cc(NC(=O)CSc2nnc(NC(=O)C3CC(=O)N(c4ccccc4)C3)s2)no1 (stereo not drawn),inactive
23,O=C(c1ccncc1)N1CCN(S(=O)(=O)c2ccccc2Br)CC1,"inconclusive: 10.4 µM [inhibitor, single point]"

row,Structure (SMILES),Potency
1,CC1CCCCC12NC(=O)N(CC(=O)OCc1cccc(F)c1)C2=O (stereo not drawn),"inconclusive: 5.22 µM [inhibitor, partial curve, poor fit]"
2,CCCCCN(C(=O)CCC(=O)OCC(=O)N1CCCCC1C)c1c(N)n(CCCC)c(=O)[nH]c1=O (stereo not drawn),inactive
3,Cc1ccc(Cl)cc1NC(=O)CCS(=O)(=O)c1cccc2nonc12,inactive
4,CCOC(=O)C1=C(C)Nc2nc3ccccc3n2C1c1ccccc1 (stereo not drawn),"inconclusive: 10.4 µM [inhibitor, single point]"
5,Cc1ccc(-n2cccc2C(=S)N=P(N(C)C)(N(C)C)N(C)C)cc1,inactive
6,COc1ccc(CCNC(=O)C(=O)NCC2CCCN2S(=O)(=O)c2cccs2)cc1OC (stereo not drawn),"inconclusive: 13.1 µM [inhibitor, partial curve, poor fit]"
7,CC[C@@]12C(=O)N(c3ccc(OC)cc3)C(=O)N1[C@H](c1cccc(C)c1)[C@@H]1C(=O)N(Cc3ccccc3)C(=O)[C@@H]12,active: 13.1 µM
8,CC(c1ccncc1)C(C)c1ccncc1 (stereo not drawn),"inconclusive: 18.5 µM [inhibitor, single point]"
9,O=C(CCCN1C(=O)c2cccc3cccc(c23)C1=O)NC1CCS(=O)(=O)C1 (stereo not drawn),active: 11.7 µM
10,CCCCn1c(N)c(N(CC(C)C)C(=O)CC(NC(=O)c2ccccc2)c2ccccc2)c(=O)[nH]c1=O (stereo not drawn),"inconclusive: 11.7 µM [inhibitor, partial curve]"
11,COc1ccccc1N1CCN(/N=C/c2ccc(O)c(O)c2)CC1,inactive
12,Cc1ccc(NC(=O)N2CCSc3ccccc32)cc1,"inconclusive: 11.7 µM [inhibitor, partial curve, poor fit]"
13,Clc1cccc(Cl)c1CO/N=C/c1c(-c2ccccc2)nc2n1CCS2,"inconclusive: 0.0928 µM [inhibitor, full curve, poor fit]"
14,c1csc(CNc2ncnc3nc[nH]c23)c1,"inconclusive: 1.85 µM [inhibitor, partial curve, poor fit]"
15,COc1ccc2nc(NC(=O)c3ccc(NS(=O)(=O)c4cccs4)cc3)sc2c1,"inconclusive: 11.7 µM [inhibitor, partial curve, poor fit]"
16,CC(=O)c1ccccc1Oc1cc(NN2CCCCC2)c([N+](=O)[O-])cc1[N+](=O)[O-],"inconclusive: 8.28 µM [inhibitor, partial curve]"
17,COc1ccc(C(=O)OCC(=O)NC2CCCC2)c(OC)c1,inactive
18,COc1ccccc1-n1c(SCC(=O)NC2CCCCC2)nc2c(c1=O)SCC2,"inconclusive: 18.5 µM [inhibitor, single point]"
19,Cc1ccnc(NC(=S)N2CCN(c3cccc(C(F)(F)F)c3)CC2)c1,"inconclusive: 13.1 µM [inhibitor, single point]"
20,Cc1nn(C2CCS(=O)(=O)C2)c2nc(C3CC3)cc(C(=O)Nc3ccc(C(N)=O)cc3)c12 (stereo not drawn),"inconclusive: 13.1 µM [inhibitor, single point]"
21,C=CCn1c(COc2ccccc2F)nnc1SCC(=O)c1c[nH]c2ccccc12,"inconclusive: 20.8 µM [inhibitor, partial curve, poor fit]"
22,COc1ccc(CCNC(=S)NC(=O)c2ccc(Br)cc2)cc1OC,inactive

# Rewritten with bars between the fields: part of the list above
row | Structure (SMILES) | Potency
11 | c1ccc(C(c2ccccc2)N2CCN(C(c3ccccn3)c3nnnn3C3CCCC3)CC2)cc1 (stereo not drawn) | active: 4.65 µM
12 | O=C(Cc1cccs1)N(CC1CCCO1)C1(C(=O)NC2CCCCC2)CCCCC1 (stereo not drawn) | inactive
